According to US20180320217A1, “METHODS FOR SAMPLING AND MEASURING ORAL LAVAGE PROTEINS” (The Procter & Gamble Company, priority 2017, published 2018):

B1: EGF-containing fibulin-like extracellular matrix protein 1 (protein, UniProt Q12805 18-493, looked up)
EGF-containing fibulin-like …: QDTEETITYTQCTDGYEWDPVRQQCKDIDECDIVPDACKGGMKCVNHYGGYLCLPKTAQIIVNNEQPQQETQPAEGTSGATTGVVAASSMATSGVLPGGGFVASAAAVAGPEMQTGRNNFVIRRNPADPQRIPSNPSHRIQCAAGYEQSEHNVCQDIDECTAGTHNCRADQVCINLRGSFACQCPPGYQKRGEQCVDIDECTIPPYCHQRCVNTPGSFYCQCSPGFQLAANNYTCVDINECDASNQCAQQCYNILGSFICQCNQGYELSSDRLNCEDIDECRTSSYLCQYQCVNEPGKFSCMCPQGYQVVRSRTCQDINECETTNECREDEMCWNYHGGFRCYPRNPCQDPYILTPENRCVCPVSNAMCRELPQSIVYKYMSIRSDRSVPSDIFQIQATTIYANTINTFRIKSGNENGEFYLRQTSPVSAMLVLVKSLSGPREHIVDLEMLTVSSIGTFRTSSVLRLTIIVGPFSF
B2: Endoglin (protein, UniProt P17813 26-658, looked up)
Endoglin: ETVHCDLQPVGPERGEVTYTTSQVSKGCVAQAPNAILEVHVLFLEFPTGPSQLELTLQASKQNGTWPREVLLVLSVNSSVFLHLQALGIPLHLAYNSSLVTFQEPPGVNTTELPSFPKTQILEWAAERGPITSAAELNDPQSILLRLGQAQGSLSFCMLEASQDMGRTLEWRPRTPALVRGCHLEGVAGHKEAHILRVLPGHSAGPRTVTVKVELSCAPGDLDAVLILQGPPYVSWLIDANHNMQIWTTGEYSFKIFPEKNIRGFKLPDTPQGLLGEARMLNASIVASFVELPLASIVSLHASSCGGRLQTSPAPIQTTPPKDTCSPELLMSLIQTKCADDAMTLVLKKELVAHLKCTITGLTFWDPSCEAEDRGDKFVLRSAYSSCGMQVSASMISNEAVVNILSSSSPQRKKVHCLNMDSLSFQLGLYLSPHFLQASNTIEPGQQSFVQVRVSPSVSEFLLQLDSCHLDLGPEGGTVELIQGRAAKGNCVSLLSPSPEGDPRFSFLLHFYTVPIPKTGTLSCTVALRPKTGSQDQEVHRTVFMRLNIISPDLSGCTSKGLVLPAVLGITFGAFLIGALLTAALWYIYSHTRSPSKREPVVAVAAPASSESSSTNHSIGSTQSTPCSTSSMA
B3: Endothelial monocyte-activating polypeptide 2 (protein, UniProt Q12904 147-312, looked up)
Endothelial …: SKPIDVSRLDLRIGCIITARKHPDADSLYVEEVDVGEIAPRTVVSGLVNHVPLEQMQNRMVILLCNLKPAKMRGVLSQAMVMCASSPEKIEILAPPNGSVPGDRITFDAFPGEPDKELNPKKKIWEQIQPDLHTNDECVATYKGVPFEVKGKGVCRAQTMSNSGIK
modifications: Endothelial monocyte-activating polypeptide 2
B4: Ephrin type-A receptor 1 (protein, UniProt P21709 26-976, looked up)
Ephrin type-A receptor 1: KEVTLMDTSKAQGELGWLLDPPKDGWSEQQQILNGTPLYMYQDCPMQGRRDTDHWLRSNWIYRGEEASRVHVELQFTVRDCKSFPGGAGPLGCKETFNLLYMESDQDVGIQLRRPLFQKVTTVAADQSFTIRDLVSGSVKLNVERCSLGRLTRRGLYLAFHNPGACVALVSVRVFYQRCPETLNGLAQFPDTLPGPAGLVEVAGTCLPHARASPRPSGAPRMHCSPDGEWLVPVGRCHCEPGYEEGGSGEACVACPSGSYRMDMDTPHCLTCPQQSTAESEGATICTCESGHYRAPGEGPQVACTGPPSAPRNLSFSASGTQLSLRWEPPADTGGRQDVRYSVRCSQCQGTAQDGGPCQPCGVGVHFSPGARGLTTPAVHVNGLEPYANYTFNVEAQNGVSGLGSSGHASTSVSISMGHAESLSGLSLRLVKKEPRQLELTWAGSRPRSPGANLTYELHVLNQDEERYQMVLEPRVLLTELQPDTTYIVRVRMLTPLGPGPFSPDHEFRTSPPVSRGLTGGEIVAVIFGLLLGAALLLGILVFRSRRAQRQRQQRQRDRATDVDREDKLWLKPYVDLQAYEDPAQGALDFTRELDPAWLMVDTVIGEGEFGEVYRGTLRLPSQDCKTVAIKTLKDTSPGGQWWNFLREATIMGQFSHPHILHLEGVVTKRKPIMIITEFMENGALDAFLREREDQLVPGQLVAMLQGIASGMNYLSNHNYVHRDLAARNILVNQNLCCKVSDFGLTRLLDDFDGTYETQGGKIPIRWTAPEAIAHRIFTTASDVWSFGIVMWEVLSFGDKPYGEMSNQEVMKSIEDGYRLPPPVDCPAPLYELMKNCWAYDRARRPHFQKLQAHLEQLLANPHSLRTIANFDPRMTLRLPSLSGSDGIPYRTVSEWLESIRMKRYILHFHSAGLDTMECVLELTAEDLTQMGITLPGHQKRILCSIQGFKD
B5: Ephrin type-B receptor 2 (protein, UniProt P29323 19-1055, looked up)
Ephrin type-B receptor 2: VEETLMDSTTATAELGWMVHPPSGWEEVSGYDENMNTIRTYQVCNVFESSQNNWLRTKFIRRRGAHRIHVEMKFSVRDCSSIPSVPGSCKETFNLYYYEADFDSATKTFPNWMENPWVKVDTIAADESFSQVDLGGRVMKINTEVRSFGPVSRSGFYLAFQDYGGCMSLIAVRVFYRKCPRIIQNGAIFQETLSGAESTSLVAARGSCIANAEEVDVPIKLYCNGDGEWLVPIGRCMCKAGFEAVENGTVCRGCPSGTFKANQGDEACTHCPINSRTTSEGATNCVCRNGYYRADLDPLDMPCTTIPSAPQAVISSVNETSLMLEWTPPRDSGGREDLVYNIICKSCGSGRGACTRCGDNVQYAPRQLGLTEPRIYISDLLAHTQYTFEIQAVNGVTDQSPFSPQFASVNITTNQAAPSAVSIMHQVSRTVDSITLSWSQPDQPNGVILDYELQYYEKELSEYNATAIKSPTNTVTVQGLKAGAIYVFQVRARTVAGYGRYSGKMYFQTMTEAEYQTSIQEKLPLIIGSSAAGLVFLIAVVVIAIVCNRRGFERADSEYTDKLQHYTSGHMTPGMKIYIDPFTYEDPNEAVREFAKEIDISCVKIEQVIGAGEFGEVCSGHLKLPGKREIFVAIKTLKSGYTEKQRRDFLSEASIMGQFDHPNVIHLEGVVTKSTPVMIITEFMENGSLDSFLRQNDGQFTVIQLVGMLRGIAAGMKYLADMNYVHRDLAARNILVNSNLVCKVSDFGLSRFLEDDTSDPTYTSALGGKIPIRWTAPEAIQYRKFTSASDVWSYGIVMWEVMSYGERPYWDMTNQDVINAIEQDYRLPPPMDCPSALHQLMLDCWQKDRNHRPKFGQIVNTLDKMIRNPNSLKAMAPLSSGINLPLLDRTIPDYTSFNTVDEWLEAIKMGQYKESFANAGFTSFDVVSQMMMEDILRVGVTLAGHQKKILNSIQVMRAQMNQIQSVEGQPLARRPRATGRTKRCQPRDVTKKTCNSNDGKKKGMGKKKTDPGRGREIQGIFFKEDSHKESNDCSCGG
B6: Ephrin type-B receptor 6 (protein, UniProt O15197 32-1021, looked up)
Ephrin type-B receptor 6: LEEVLLDTTGETSEIGWLTYPPGGWDEVSVLDDQRRLTRTFEACHVAGAPPGTGQDNWLQTHFVERRGAQRAHIRLHFSVRACSSLGVSGGTCRETFTLYYRQAEEPDSPDSVSSWHLKRWTKVDTIAADESFPSSSSSSSSSSSAAWAVGPHGAGQRAGLQLNVKERSFGPLTQRGFYVAFQDTGACLALVAVRLFSYTCPAVLRSFASFPETQASGAGGASLVAAVGTCVAHAEPEEDGVGGQAGGSPPRLHCNGEGKWMVAVGGCRCQPGYQPARGDKACQACPRGLYKSSAGNAPCSPCPARSHAPNPAAPVCPCLEGFYRASSDPPEAPCTGPPSAPQELWFEVQGSALMLHWRLPRELGGRGDLLFNVVCKECEGRQEPASGGGGTCHRCRDEVHFDPRQRGLTESRVLVGGLRAHVPYILEVQAVNGVSELSPDPPQAAAINVSTSHEVPSAVPVVHQVSRASNSITVSWPQPDQTNGNILDYQLRYYDQAEDESHSFTLTSETNTATVTQLSPGHIYGFQVRARTAAGHGPYGGKVYFQTLPQGELSSQLPERLSLVIGSILGALAFLLLAAITVLAVVFQRKRRGTGYTEQLQQYSSPGLGVKYYIDPSTYEDPCQAIRELAREVDPAYIKIEEVIGTGSFGEVRQGRLQPRGRREQTVAIQALWAGGAESLQMTFLGRAAVLGQFQHPNILRLEGVVTKSRPLMVLTEFMELGPLDSFLRQREGQFSSLQLVAMQRGVAAAMQYLSSFAFVHRSLSAHSVLVNSHLVCKVARLGHSPQGPSCLLRWAAPEVIAHGKHTTSSDVWSFGILMWEVMSYGERPYWDMSEQEVLNAIEQEFRLPPPPGCPPGLHLLMLDTWQKDRARRPHFDQLVAAFDKMIRKPDTLQAGGDPGERPSQALLTPVALDFPCLDSPQAWLSAIGLECYQDNFSKFGLCTFSDVAQLSLEDLPALGITLAGHQKKLLHHIQLLQQHLRQQGSVEV
B7: Ephrin-A4 (protein, UniProt P52798 26-170, looked up)
Ephrin-A4: LRHVVYWNSSNPRLLRGDAVVELGLNDYLDIVCPHYEGPGPPEGPETFALYMVDWPGYESCQAEGPRAYKRWVCSLPFGHVQFSEKIQRFTPFSLGFEFLPGETYYYISVPTPESSGQCLRLQVSVCCKERKSESAHPVGSPGES
B8: Ephrin-B1 (protein, UniProt P98172 28-346, looked up)
Ephrin-B1: LAKNLEPVSWSSLNPKFLSGKGLVIYPKIGDKLDIICPRAEAGRPYEYYKLYLVRPEQAAACSTVLDPNVLVTCNRPEQEIRFTIKFQEFSPNYMGLEFKKHHDYYITSTSNGSLEGLENREGGVCRTRTMKIIMKVGQDPNAVTPEQLTTSRPSKEADNTVKMATQAPGSRGSLGDSDGKHETVNQEEKSGPGASGGSSGDPDGFFNSKVALFAAVGAGCVIFLLIIIFLTVLLLKLRKRHRKHTQQRAAALSLSTLASPKGGSGTAGTEPSDIIIPLRTTENNYCPHYEKVSGDYGHPVYIVQEMPPQSPANIYYKV

Test system: proteins in oral lavage
Test: Abundance of proteins in human oral lavage (SomaLogic), TABLE 1
Format: in vivo
Details: for Means (Original Scale) High bleeder BL / Means (Original Scale) High bleeder W4 / Means (Original Scale) Low bleeder BL: abundance in oral lavage; for Means (Original Scale) High bleeder BL: high bleeders (gingivitis); for Means (Original Scale) High bleeder BL / Means (Original Scale) Low bleeder BL: baseline; for Means (Original Scale) High bleeder W4 / Fold Change High bleeder W4 vs High bleeder BL: high bleeders; for Means (Original Scale) High bleeder W4: week 4 of investigative products; for Means (Original Scale) Low bleeder BL: low bleeders (healthy); for Fold Change High bleeder BL vs Low bleeder BL / Fold Change High bleeder W4 vs High bleeder BL: oral lavage; for Fold Change High bleeder BL vs Low bleeder BL: high bleeders vs low bleeders at baseline; for Fold Change High bleeder W4 vs High bleeder BL: week 4 of investigative products vs baseline

Molecule	Means (Original Scale) High bleeder BL	Means (Original Scale) High bleeder W4	Means (Original Scale) Low bleeder BL	Fold Change High bleeder BL vs Low bleeder BL	Fold Change High bleeder W4 vs High bleeder BL
B1	29110	11693	3473	6.80	0.50
B2	55	38	31	1.65	0.72
B3	2955	1541	468	4.67	0.60
B4	605	371	375	2.13	0.59
B5	3011	1883	986	2.36	0.52
B6	1464	755	392	3.50	0.54
B7	1384	729	350	3.60	0.55
B8	5419	3253	1760	2.92	0.64
